These are yes or no findings as the source states them, for the method shown. Binding seen in cells or lysates may run through a third protein. Some entries that bind do so weakly or less than the wild type.
Target: Caspase-8 (human (endogenous in OVCAR-8)) (UniProt Q14790)
Experiment: co-IP; OVCAR-8 wt cells separated into cytosolic and nuclear fractions; anti-Caspase-8 co-IP; blotted for pCDK9, CDK9 and Cyclin T

The chains behind the UniProt entries cited, without tags or fusion partners. Where a name states a change or a piece, a line headed by the entry shows the natural chain unless it says otherwise. A line that says so, or that is headed by a name, gives the form on record, which may keep a tag or linker.
UniProt Q14790: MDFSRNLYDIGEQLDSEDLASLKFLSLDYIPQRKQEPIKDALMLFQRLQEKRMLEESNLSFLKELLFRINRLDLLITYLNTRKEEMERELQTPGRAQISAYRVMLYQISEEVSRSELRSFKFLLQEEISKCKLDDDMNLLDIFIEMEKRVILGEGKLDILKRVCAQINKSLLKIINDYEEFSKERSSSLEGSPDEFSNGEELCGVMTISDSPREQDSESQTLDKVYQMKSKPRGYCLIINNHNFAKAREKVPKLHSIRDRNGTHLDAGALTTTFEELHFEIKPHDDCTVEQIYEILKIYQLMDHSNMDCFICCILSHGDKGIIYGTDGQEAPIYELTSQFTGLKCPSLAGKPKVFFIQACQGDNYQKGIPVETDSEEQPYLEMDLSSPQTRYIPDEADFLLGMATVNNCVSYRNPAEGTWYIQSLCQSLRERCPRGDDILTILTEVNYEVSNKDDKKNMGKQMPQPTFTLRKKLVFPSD
CDK9 isoform p55 (P50750-2, form named): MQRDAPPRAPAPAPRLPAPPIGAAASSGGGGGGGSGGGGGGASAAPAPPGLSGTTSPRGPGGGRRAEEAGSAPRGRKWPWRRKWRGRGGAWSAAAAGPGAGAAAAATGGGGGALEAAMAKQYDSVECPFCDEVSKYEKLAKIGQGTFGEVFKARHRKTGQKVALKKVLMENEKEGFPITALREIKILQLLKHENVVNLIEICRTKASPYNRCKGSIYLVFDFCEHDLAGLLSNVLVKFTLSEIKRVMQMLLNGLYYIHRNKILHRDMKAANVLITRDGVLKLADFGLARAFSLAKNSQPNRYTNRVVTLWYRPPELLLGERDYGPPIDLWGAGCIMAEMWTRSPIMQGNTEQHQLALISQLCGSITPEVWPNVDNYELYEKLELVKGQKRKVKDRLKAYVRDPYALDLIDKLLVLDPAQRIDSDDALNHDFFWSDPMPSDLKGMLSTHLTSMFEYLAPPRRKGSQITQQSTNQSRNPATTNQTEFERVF

Substance: CDK9 isoform p55 (from UniProt P50750-2 1-489) (enzyme)
- binding: binds

— paper PMC10778249
